Laboratory results as given in the supplement of paper PMC12494721.
Counter-ions that a name gives are not always drawn. This list holds what a sample rich in lowest values left over.

Experiments:
Test in all cases: growth (OD595) fold change vs plate DMSO controls (fold change (ratio)); higher = more growth
Conditions in all cases: 20 µM; incubation time: 27 h, anaerobic, 37 °C
[1] = tested on: Clostridium sporogenes DSM 1664
In short: (§1)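 The 96-well mGAM cultures had been kept anaerobic for 27 h at 37 °C before being shaken and read at 595 nm. Blank subtraction, compound background correction with 20 µM compound solutions in water, and a calibration factor of 5 turned the readings into OD. Growth is given as the fold change versus the median of plate DMSO controls. Fold changes above 1.5 were set to NA, and the values are means of 2 biological replicates.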

Escherichia coli IAI1 = tested on: Escherichia coli IAI1
In short: as §1

[2] = tested on: Klebsiella aerogenes DSM 30053
In short: as §1

[3] = tested on: Ruminococcus gnavus DSM 108212
In short: as §1

CCC(C)C(C(=O)OCC[N+](C)(CC)CC)c1ccccc1 (stereo not drawn) [Valethamate bromide]
growth [1]: 1.01
growth (Escherichia coli IAI1): 1.02
growth [2]: 0.996
growth [3]: 0.896

CN1[C@@H]2CC[C@H]1CC(OC(=O)C(O)c1ccccc1)C2 (mixture of isomers) [(R,S) Homatropine hydrobromide]
growth [1]: 0.935
growth (Escherichia coli IAI1): 1.1
growth [2]: 1.14
growth [3]: 1.08
